For one substance, binding results are on record in publication PMC5677176.

These are yes or no findings as the source states them, for the method shown. Binding seen in cells or lysates may run through a third protein. Sequences can lack the tags named with a protein.

The assay deals with T1, Xenopus Dvl2 (Xdsh), full-length, myc-tagged (Xenopus) (UniProt P51142).
T1 sequence: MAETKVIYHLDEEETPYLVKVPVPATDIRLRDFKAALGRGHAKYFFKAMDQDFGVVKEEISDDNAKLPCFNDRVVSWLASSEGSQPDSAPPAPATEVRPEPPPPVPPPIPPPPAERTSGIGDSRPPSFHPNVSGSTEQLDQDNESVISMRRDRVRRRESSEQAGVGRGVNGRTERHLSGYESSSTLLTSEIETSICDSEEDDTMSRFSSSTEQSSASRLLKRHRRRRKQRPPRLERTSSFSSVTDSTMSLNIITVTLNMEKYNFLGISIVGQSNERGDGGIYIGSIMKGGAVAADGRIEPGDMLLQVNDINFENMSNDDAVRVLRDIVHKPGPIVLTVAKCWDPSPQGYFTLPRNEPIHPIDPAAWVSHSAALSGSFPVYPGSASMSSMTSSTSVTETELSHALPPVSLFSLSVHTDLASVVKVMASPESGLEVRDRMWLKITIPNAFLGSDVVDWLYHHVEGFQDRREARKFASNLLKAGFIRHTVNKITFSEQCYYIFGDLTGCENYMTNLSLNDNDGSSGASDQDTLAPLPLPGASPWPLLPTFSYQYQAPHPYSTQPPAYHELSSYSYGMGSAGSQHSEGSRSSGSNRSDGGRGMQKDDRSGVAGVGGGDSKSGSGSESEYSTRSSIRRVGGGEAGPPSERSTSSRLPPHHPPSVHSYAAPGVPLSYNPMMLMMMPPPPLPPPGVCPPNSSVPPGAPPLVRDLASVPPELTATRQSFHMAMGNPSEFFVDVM
Kind of assay: co-IP; HEK293T cells transfected for 24 h; lysis in 150 mM NaCl, 50 mM Tris-HCl pH 7.5, 1% Triton X-100; precipitation with anti-myc agarose beads, 2 h at 4 °C; five washes with 500 mM NaCl; blots with anti-myc or anti-Flag.

In the case of “Flag-Lurap1ΔC (zebrafish Lurap1 lacking the C-terminal PDZ-binding motif) (domain or fragment)”, the binding result is “no binding”.
